Data as given in article PMC6379999.
The exact form of at least one protein or probe is not confirmed.

What follows are sequences tested against SSP_Lrp (Streptomyces spiramyceticus 1941) (UniProt A0A411PXG6) (assay: EMSA). Details: EMSA: 10 mM Tris-Cl pH 7.5, 50 mM NaCl, 1 mM EDTA, 4 mM DTT, 5% glycerol, 0.1 ng/uL negative-control DNA, 300 ug/mL acetylated BSA, 0.4 ng probe, 20 uL, 20 min; recombinant protein; residues 1-148; protein details: N-terminal His6 (pQE9); probe letters rebuilt from the primers and the genome.

Sequence	binding result
AGTCGCCGGTAGCTTATCCACCGTTCGCCGAGGCGGTTCAAGTGGCAGCGTTCAACCGCGATCCGGTCTTTATGGAATTCATATCTGCCCGCTGGCTTGATGAGTCGGGCCTCATGTCCGGAAGTCGATCCCGGCCGGGAGTGCGCGGCGATCCGCCCGGACGCCGAATGCCGTGGCCGGCACCCGTCCGGTAACGTCCTGCGGGGTACGGACGGCGGTCCGGCCGTCCATCAGAATCGGACGAACGGGATGAAATGTTATGGCGAGGGAGCGAAAGGAAGCGGGTGCGGAGGATTTACCGCAGCCCGTTCCAGGACCCTCGGCGATCTAGATCGGGTACCCTGATAGCGTAATAACCTGTCATTGTATTCGTA (double strand) [Pbsm23]	binds
GGCAGGTAGGCCATTTGGGTTCGTGTCCGTCAAGGGGGCGTCGGCCCACACAGCCGTGGCGATGGTGCGTCCCGCGGGGTGTTCCGGGGGCTGTGCGGACGCGGCCGGCGCGACGTGTTTCTGATGGCATGTCACCTTCTGGGGGTGATCGGCGGTGAGGTGATCACGTCGCGTTGTGGAGCGATCTCGTGGAGTGGTCGGTCGTGGTGCCCCGGCACCACTCGTGGGGCGCTCGTGGTGGGTTTCCCCTCACGTTTCGGAGCGGTGGGAGCGGTCCGCGCCGAGGGTGCGTCGGTGGGGGAGCGAAGCGGAATGAGTGTGCCCGGTGTACCTGGGGCGGTCGGGGTGAATTCGCGATGCTGGTCCGAGTCCACTCGCAGGAATGACGA (double strand) [Pbsm42]	binds
GGGTGACCTCGCGGCGGACGGGTGGGTGGGAGCAGATGTCTAAGGCACCGCGCGGCCGCCGGGCAAGGCGTATCTGACAAAGAGTGTGAGCCGCCGCGCGACAGTGGTGTGTTCCCACCGCTGCACGGCCGGCGACGGTGGTTTCGTCACCGGGCGACGCGGATTTAATCATCCGGAAACACGGACGACGGTTCTTCGCGGCGGTGTGACGCGAGGTGTGCGGGAAGAATTGTGTGGCCTCGGCACCTGGATTTACGGAACGAATTAACTGAGGCTGGCCAGCAGGTCTTTTCCAGTGGATCAAGCGGCTTGTGAGGGTCATA (double strand) [Pist-acyB2]	binds
